Data source: PubChem BioAssay AID686943 (Drosophila RNAi Screening Center, 2013)
Test: 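Fly genes whose loss alters ERK activation after insulin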 (primary screen). System: Drosophila S2R+ haemocyte-like cells expressing YFP-tagged ERK (Rolled). Knock-down reagent: long dsRNA against Drosophila genes. Challenge: insulin stimulation versus unstimulated cells; dose and duration not given. Measurement: 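Antibody staining for doubly phosphorylated ERK divided by ERK-YFP signal, as plate z-scores, in insulin-treated and untreated cells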. Scale: replicate 1, z-score of dpERK with insulin and replicate 2, z-score of dpERK with insulin: higher = more active ERK per ERK-YFP after insulin; replicate 1, z-score of dpERK under basal conditions: higher = more basal active ERK per ERK-YFP.
The deposit covers about 23,000 reagents; below is a random part of those that have a named target and a result. 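Extra replicates exist only for a retested subset of genes; insulin dose and duration not given; both raised and lowered dpERK matter.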 Names joined by + are all predicted targets of the reagent. Not all columns of the deposit are shown. Not given: the amount of reagent, the time to read-out.

| target | dsRNA | replicate 1, z-score of dpERK with insulin | replicate 2, z-score of dpERK with insulin | replicate 1, z-score of dpERK under basal conditions |
| --- | --- | --- | --- | --- |
| CG18814 | DRSC10347 | 0.73 | -0.22 | 0.31 |
| CG11635 | DRSC06075 | 0.11 | -0.36 | 0.29 |
| Mal-A4 (Maltase A4) | DRSC07236 | -0.59 | -0.09 | -0.09 |
| CG30395 | DRSC03896 | 0.64 | -0.21 | 0 |
| CG33110 | DRSC14694 | -1.08 | -1.49 | -1.1 |
| CG33110 | DRSC16137 | 0.17 | -0.04 | -0.4 |
| CG32695 | DRSC17975 | -0.16 | -0.86 | -1.83 |
| CG11267 | DRSC09833 | 0.25 | 0.53 | 0.54 |
| Alg1 (ALG1, chitobiosyldiphosphodolichol beta-mannosyltransferase) | DRSC15297 | 0.08 | -0.06 | 0 |
| RhoGAP1A (Rho GTPase activating protein at 1A) | DRSC20649 | -0.19 | 0.04 | 0.26 |
| RhoGAP1A (Rho GTPase activating protein at 1A) | DRSC20651 | -0.82 | -0.52 | -0.14 |
| CG31370 | DRSC21453 | -0.55 | 0.5 | -0.1 |
| CG33099 | DRSC15774 | -0.03 | -0.73 | -0.42 |
| CG31198 | DRSC15891 | -0.12 | -0.39 | -0.21 |
| CG6142 | DRSC15976 | 0.03 | 0 | 0.12 |
| dysc (dyschronic) | DRSC10273 | 1.15 | 1.32 | 0.56 |
| dysc (dyschronic) | DRSC11040 | -0.25 | 0.27 | -0.73 |
| dysc (dyschronic) | DRSC22334 | 0.2 | -0.03 | 1.24 |
| dysc (dyschronic) | DRSC22437 | 0.1 | 0.69 | -1.49 |
| dysc (dyschronic) | DRSC22824 | -0.38 | -0.44 | -0.57 |
| CG42726 + CG42727 | DRSC14485 | 0.63 | 0.04 | -0.17 |
| Ir94a (Ionotropic receptor 94a) | DRSC13538 | -0.95 | -0.4 | 0.3 |
| Polr1A (RNA polymerase I subunit A) | DRSC07535 | 0.06 | -0.33 | -0.57 |
| CR43096 + CG43060 | DRSC12654 | 0.64 | 1.01 | 1.03 |
| eIF4E4 (eukaryotic translation initiation factor 4E4) | DRSC09701 | -1.41 | -2.01 | -0.41 |
| CG33642 | DRSC01325 | 1.07 | 0.08 | 0.62 |
| CG15605 | DRSC06558 | -0.17 | 0.82 | -0.38 |
| CG42544 | DRSC12451 | -1.7 | -0.63 | 0.49 |
| MsrA (Methionine sulfoxide reductase A) | DRSC11159 | 0.73 | 0.49 | -0.75 |
| CG15160 | DRSC02461 | -0.71 | 0.53 | -1.95 |
| CG13594 | DRSC04229 | 0.26 | 0.6 | -1.09 |
| Eip93F (Ecdysone-induced protein 93F) | DRSC13527 | -0.1 | -0.35 | 0.55 |
| Eip93F (Ecdysone-induced protein 93F) | DRSC16661 | 0.42 | -0.01 | -1.65 |
| Eip93F (Ecdysone-induced protein 93F) | DRSC21754 | 0.61 | 1.64 | -0.95 |
| CG12219 | DRSC17829 | 0.98 | 0.82 | -0.74 |
| Cyp4ad1 (Cytochrome P450 4ad1) | DRSC07369 | -0.52 | 0 | -0.22 |
| rin (rasputin) | DRSC17045 | 1.14 | 0.3 | -0.77 |
| CG5265 | DRSC15756 | 0.09 | 0.36 | -0.47 |
| Rfk (Riboflavin kinase) | DRSC15454 | 0.95 | 0.3 | 1.66 |
| CG31274 + MESK4 | DRSC13202 | -0.05 | 0.86 | -0.21 |
| Teh2 (tipE homolog 2) | DRSC08458 | -0.25 | -0.43 | 1 |
| Frmd5 (FERM domain containing) | DRSC02802 | -0.18 | 0.28 | 1.38 |
| CG12948 | DRSC14576 | -0.57 | -0.41 | -0.44 |
| CysRS-m (Cysteinyl-tRNA synthetase, mitochondrial) | DRSC07129 | -0.19 | -0.51 | -0.01 |
| RNF220 (ring finger protein 220) | DRSC15652 | -0.14 | 0.46 | 0.02 |
| Acox3 (Acyl-CoA oxidase 3) | DRSC03251 | 0.44 | -0.19 | -0.01 |
| Marc (Mitochondrial amidoxime reducing component) | DRSC06614 | 0.47 | -0.1 | -0.1 |
| Ufd4 (Ubiquitin fusion-degradation 4-like) | DRSC02871 | -1.38 | -1.37 | -0.55 |
| Naa60 (N(alpha)-acetyltransferase 60) | DRSC10301 | 0.26 | 0.35 | 0.46 |
| nab | DRSC08455 | 0.25 | -0.02 | -0.33 |
| nab | DRSC08456 | -0.04 | -0.51 | 2.05 |
| CG11898 | DRSC14432 | 1.39 | 0.49 | 0.78 |
| CG32440 | DRSC11480 | -0.46 | -0.79 | -0.29 |
| CG13215 | DRSC06337 | 0.81 | 0.94 | -0.51 |
| CG17362 | DRSC10267 | -0.13 | 0.28 | 2.41 |
| CG10513 | DRSC14248 | 0.01 | 0.83 | -0.45 |
| mge (maggie) | DRSC08721 | 0.31 | 0.48 | -0.95 |

Limited to “replicate 1, z-score of dpERK with insulin” (6 entries from above):
CG11267 [DRSC09833] = 0.25
Alg1 (ALG1, chitobiosyldiphosphodolichol beta-mannosyltransferase) [DRSC15297] = 0.08
RhoGAP1A (Rho GTPase activating protein at 1A) [DRSC20649] = -0.19
RhoGAP1A (Rho GTPase activating protein at 1A) [DRSC20651] = -0.82
CG31370 [DRSC21453] = -0.55
CG33099 [DRSC15774] = -0.03
